The filed quantity is “Percent Effect” (%). How 0% and 100% were set is not recorded. Most values in the screen are low, and negative values occur. Compounds were drawn at random from those tested, without regard to their results.

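Whole-cell assay for inhibitors of Mycobacterium tuberculosis growth, labelled Cornell in the record; the read-out is not stated. The concentration is filed as 10 mM, unlikely as a test dose, so the dose is not known. Higher means stronger inhibition (inferred from two other growth screens of the library). Size under these conditions: about 53,000 compounds, about 900 of them at 50% or above in at least one test.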

{"structure": "O=C(Cc1ccncc1)N1CCC2(CC1)CC(c1ccccc1)CO2.O=C(O)C(F)(F)F", "stereo": "stereo not shown", "Percent Effect": -24.24}
{"structure": "CN(CC(=O)Nc1cc(C(C)(C)C)n[nH]1)S(C)(=O)=O", "Percent Effect": -3.363}
{"structure": "COc1ccc(-n2ncc3c2NC(=O)CSC3C(C)C)cc1", "stereo": "stereo not shown", "Percent Effect": 25.63}
{"structure": "c1ccc(Cc2nnc([C@H]3CCN(C4CCCCC4)C3)o2)cc1", "Percent Effect": 1.52}
{"structure": "CC(C)CN1CC2(CCN(C(=O)c3cn4cccnc4n3)CC2)CC1=O", "Percent Effect": 8.426}
{"structure": "CCc1ccccc1Nc1noc2c1CN(C(=O)C1CCCO1)CC2", "stereo": "stereo not shown", "Percent Effect": -144.3}
{"structure": "CNC(=O)CN1CCC(c2nn(C)c(=O)n2-c2ccccc2)CC1", "Percent Effect": -21.07}
{"structure": "COCCC1COC2(CCN(C(=O)c3ccsc3)CC2)C1", "stereo": "stereo not shown", "Percent Effect": 27.4}
{"structure": "COc1ccc2cc(C3CN(C(=O)CN4CCCC4)CCO3)ccc2c1", "stereo": "stereo not shown", "Percent Effect": 25.85}
{"structure": "COc1ccccc1CN1CCCCC1c1n[nH]cc1-c1cc(C)no1.Cl", "stereo": "stereo not shown", "Percent Effect": 13.91}
{"structure": "O=C(NCCC1CN(C2CCCC2)CCO1)c1c[nH]c(=O)[nH]c1=O", "stereo": "stereo not shown", "Percent Effect": 7.562}
{"structure": "c1cncc(-c2ccc3c(c2)C2(CCNCC2)CC3)c1", "Percent Effect": -80.39}
{"structure": "CS(=O)(=O)NC1CCN(C(=O)NCCc2ccccc2F)CC1", "Percent Effect": 8.766}
{"structure": "CCN(CC)CCn1cc(NC2CCSCC2)cn1", "Percent Effect": 1.366}
{"structure": "Cc1ccc(CN2CCN(c3ncccc3C(N)=O)CC2CCO)cc1", "stereo": "stereo not shown", "Percent Effect": 16.45}
{"structure": "CC(C)c1cc(NC(=O)CN2CCc3cncnc3C2)on1", "Percent Effect": 15.75}
{"structure": "NCCO[C@H]1C[C@@H](O)C12CCN(C(=O)COc1cccc(Cl)c1)CC2", "Percent Effect": 4.893}
{"structure": "CCN(Cc1ccncc1)CC1(O)CCN(C(=O)c2cccc(C)c2)C1", "stereo": "stereo not shown", "Percent Effect": -4.083}
{"structure": "CCN1CC2(CCN(CCOc3ccc(F)cc3)CC2)CC1=O", "Percent Effect": -20.78}
{"structure": "O=C(O)C(F)(F)F.c1cnc(NC2COC3(CCN(Cc4cc[nH]n4)CC3)C2)nc1", "stereo": "stereo not shown", "Percent Effect": -22.4}
{"structure": "Cn1cc(C(=O)NCC2CCN(C(=O)NC3CC3)CC2)cn1", "Percent Effect": -34.71}
{"structure": "O=C(O)C(F)(F)F.O=C(O)C(F)(F)F.[H][C@@]12CCCO[C@]1([H])[C@H](N(C)Cc1cncnc1)CN(Cc1ccco1)C2", "Percent Effect": 7.093}
{"structure": "Cn1ncc2c(=O)[nH]c(CN3CCCC3c3cccs3)nc21", "stereo": "stereo not shown", "Percent Effect": -11.26}
{"structure": "COc1ccc(C(C)Nc2nc3c(C)nn(C)c3c(=O)n2C)cc1", "stereo": "stereo not shown", "Percent Effect": -11.89}
{"structure": "CCC(=O)N1CCC(NC2CCCC2)C1", "stereo": "stereo not shown", "Percent Effect": 7.787}
{"structure": "Cl.c1cc(CNc2cnc(C3CCCN3)cn2)ccn1", "stereo": "stereo not shown", "Percent Effect": 11.28}
{"structure": "O=C(O)C(F)(F)F.O=C(O)C(F)(F)F.[H][C@@]12CCCO[C@]1([H])[C@H](OCc1ccncc1)CN2Cc1ccoc1", "Percent Effect": -2.171}
{"structure": "CCN(CC1CN(Cc2cccnc2)CCO1)c1cccnn1", "stereo": "stereo not shown", "Percent Effect": -7.251}
{"structure": "O=C(N[C@H]1CCCC[C@@H]1O)c1ccc2nc(-c3ccccc3)[nH]c2c1", "Percent Effect": -2.202}
{"structure": "Cc1nc(CN2CCC(N(C)Cc3nnc(C4CC4)n3C)C2)cs1", "stereo": "stereo not shown", "Percent Effect": 55.81}
{"structure": "CC(C(=O)NCC1CCN(c2ccncc2)CC1)S(C)(=O)=O", "stereo": "stereo not shown", "Percent Effect": 19.56}
{"structure": "CN(Cc1cnn(C)c1)C(=O)NC1CCS(=O)(=O)C1", "stereo": "stereo not shown", "Percent Effect": 6.502}
{"structure": "Cc1cc(C(=O)Nc2ccc(N3CCCC3)cn2)ccc1-n1cncn1", "Percent Effect": 17.37}
{"structure": "O=C(NCC1CCCCC1)c1nnn(-c2ccc(Br)cc2)n1", "Percent Effect": 11.91}
{"structure": "Cc1ccc2c(c1)OC(C)(C)CC2NC(=O)C1CCN(C)CC1", "stereo": "stereo not shown", "Percent Effect": 26.85}
{"structure": "CCCN(C(=O)CN1CCn2c(nnc2C2CC2)C1)C1=CCCCC1", "Percent Effect": 11.73}
{"structure": "Cc1cc(CNC2CCCN(c3cccnn3)C2)no1", "stereo": "stereo not shown", "Percent Effect": -1.577}
{"structure": "O=C(c1occc1CN1C(=O)Cc2ccccc21)N1CC(O)C1", "Percent Effect": 22.99}
{"structure": "CN1CCCN(S(=O)(=O)c2cccc(C(=O)N3CCCCCC3)c2)CC1", "Percent Effect": 0.9099}
{"structure": "CCc1nc(CN2CCCN(C(=O)c3cn[nH]c3C)CC2)cs1", "Percent Effect": -26.72}
{"structure": "Cc1nc(CCNC(=O)N2CCC(Cc3cnn(C)c3)C2)cs1", "stereo": "stereo not shown", "Percent Effect": 24.73}
{"structure": "CN(C)Cc1nn(C)c2c1CCN(S(=O)(=O)c1cccs1)C2", "Percent Effect": 13.98}
{"structure": "Cc1nn(C)cc1Cn1c(=O)c(C)nc2ccccc21", "Percent Effect": -18.95}
{"structure": "O=C(c1ccc(Cl)o1)N1CCCC1c1nnc2n1CCCCC2", "stereo": "stereo not shown", "Percent Effect": 27.98}
{"structure": "O=C(c1ccc(Cn2cnnn2)cc1)N1CC[C@H](CO)[C@H](O)C1", "Percent Effect": -10.82}
{"structure": "Cc1nc(C2CCCCN2S(C)(=O)=O)no1", "stereo": "stereo not shown", "Percent Effect": 9.372}
{"structure": "CCOC(=O)N1CC(C)=C(C)CN1C(=O)Nc1ccc(Cl)c(Cl)c1", "Percent Effect": 0.2317}
{"structure": "O=C(COc1coc(CN2CCOCC2)cc1=O)Nc1ccccc1F", "Percent Effect": 18.45}
{"structure": "Cc1cc(C(=O)N2CCC(C)CC2)ccc1NS(C)(=O)=O", "Percent Effect": -25.59}
{"structure": "Cc1ccc(CN2CCN(Cc3cc(C)n[nH]3)CC2CCO)cc1", "stereo": "stereo not shown", "Percent Effect": 3.295}
{"structure": "CCC(=O)Nc1ccc2c(c1)C1(CCOCC1)CN2CCF.O=C(O)C(F)(F)F", "Percent Effect": 2.387}
{"structure": "CN(C(=O)CN1CCC(c2cc3ccccc3[nH]2)CC1)C(C)(C)C#N", "Percent Effect": 14.74}
{"structure": "CC(C)c1cc(CN2CCNCC2)no1", "Percent Effect": 107.4}
{"structure": "c1csc(-c2nc(CN3CCOC(Cn4cncn4)C3)co2)c1", "stereo": "stereo not shown", "Percent Effect": 10.4}
{"structure": "[H][C@@]12CN(S(=O)(=O)CCC)C[C@]1([H])N(CCc1cccc(Cl)c1)C(=O)O2", "Percent Effect": -30.46}
{"structure": "CC1CCN(C(=O)c2cnn3c(-c4ccco4)ccnc23)CC1", "Percent Effect": 30.87}
{"structure": "O=C(CNC(=O)N1CCc2c([nH]c3ccc(Cl)cc23)C1)NC1CCCC1", "Percent Effect": -5.062}
{"structure": "CN1CC2(CCN(Cc3ncc[nH]3)CC2)CC1=O", "Percent Effect": 13.35}
{"structure": "Cc1cc(C(=O)NC2=NCCS2)c(C)n1-c1ccccn1", "Percent Effect": 7.247}
{"structure": "Cn1cnnc1-c1cncc(NCc2cccc3c2OC(C)(C)C3)c1", "Percent Effect": -5.72}

8 of the entries, repeated:

Result for CN(C)Cc1nn(C)c2c1CCN(S(=O)(=O)c1cccs1)C2 was 13.98%.
Result for Cc1cc(C(=O)NC2=NCCS2)c(C)n1-c1ccccn1 was 7.247%.
Result for Cc1nc(CCNC(=O)N2CCC(Cc3cnn(C)c3)C2)cs1 (stereo not shown) was 24.73%.
Result for CCN1CC2(CCN(CCOc3ccc(F)cc3)CC2)CC1=O was -20.78%.
Result for CC(C)c1cc(CN2CCNCC2)no1 was 107.4%.
Result for Cc1cc(C(=O)Nc2ccc(N3CCCC3)cn2)ccc1-n1cncn1 was 17.37%.
Result for O=C(NCC1CCCCC1)c1nnn(-c2ccc(Br)cc2)n1 was 11.91%.
Result for Cn1ncc2c(=O)[nH]c(CN3CCCC3c3cccs3)nc21 (stereo not shown) was -11.26%.

The values are deposited in ChEMBL (CHEMBL3988442, “University of Dundee, Small-Polar-MMV Screening Library” (2021)).